# Values of other authors as cited in patent US20090291066A1, “COMPOSITION AND METHOD OF TREATING FACIAL SKIN DEFECT” (priority 2008, published 2009).
# At least one compound was matched to its structure with a doubt left.
# System: HIV subjects
# Details: 24-week study, oral ingestion; cited from earlier work
structure (smiles),measurement,value
"CN(CCOc1ccc(CC2SC(=O)NC2=O)cc1)c1ccccn1 (stereo not shown) [Rosiglitazone, rosiglitazone]","difference in leg fat, limb fat, trunk fat, or total body fat between treatment groups and the placebo group",no statistically significant difference
